Taken from: PubChem BioAssay AID1224830 (NIAID, 2016)
Aim: 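Regulators of TLR4 signalling towards TNF-alpha in macrophage-like cells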 (primary screen). Cell system: human THP-1 monocytic leukaemia cells, TNF dual-luciferase reporter clone, PMA-differentiated to macrophage-like cells. Knock-down reagent: siRNA pool against human genes, 50 nM. Timing: LPS for 4 h, given about 3 days after siRNA transfection. Treatment: bacterial LPS (TLR4 ligand), 10 ng/ml. Read-out: 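TNF firefly reporter luminescence divided by renilla, normalised to the plate median, then turned into a robust z-score for each replicate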. Reading the numbers: TNF reporter robust z-score: higher = stronger TNF reporter response to LPS. Rule for the call: 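Each well counts as active if its z-score is over 2.8 or under -1.5; controls are left without a call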.
Here is a random part of about 18,000 reagents tested. In the full data, about 2,900 (16%) got an active call. 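Calls are made per well; low scores hint the gene aids the LPS response, high scores that it dampens it.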 A number with no mark means an inactive call. Repeated entries: four replicate wells of each siRNA pool. Reagent sequences are not shown.

gene | TNF reporter robust z-score
PARD3 | -1.47
PARD3 | -1.49
PARD3 | -1.05
PARD3 | -0.78
CPNE1 | -0.54
CPNE1 | -0.1
CPNE1 | -0.71
CPNE1 | -0.62
ESRRA | -1.44
ESRRA | -1.29
ESRRA | -1.15
ESRRA | -0.11
KIAA2013 | -0.1
KIAA2013 | -0.72
KIAA2013 | -1.2
KIAA2013 | -0.47
EMILIN2 | 0.96
EMILIN2 | 1.3
EMILIN2 | 2.56
EMILIN2 | -0.93
MRRF | -0.52
MRRF | -0.59
MRRF | -0.74
MRRF | -0.97
RIC3 | -0.91
RIC3 | -0.66
RIC3 | -1.42
RIC3 | -0.14
CCDC17 | 0.8
CCDC17 | 0.74
CCDC17 | 0.81
CCDC17 | -0.97
SLC35H1 | 0.66
SLC35H1 | 1.16
SLC35H1 | -0.04
SLC35H1 | 0.02
ZNF718 | 1.75
ZNF718 | 2.39
ZNF718 | 0.53
ZNF718 | 2.67
SYCN | 0.67
SYCN | 1.16
SYCN | 0.73
SYCN | 0.99
AKR1C4 | 1.52
AKR1C4 | 1.85
AKR1C4 | 0.35
AKR1C4 | -0.71
TCAF1 | 2
TCAF1 | 1.73
TCAF1 | 0.92
TCAF1 | 0.79
PRKACG | -0.24
PRKACG | 0.62
PRKACG | -0.44
PRKACG | -0.45
STATH | 1.67
STATH | 0.7
STATH | 1.48
STATH | 1.43
RNF43 | -0.01
RNF43 | 0.15
RNF43 | 0.29
RNF43 | -1.04
MAN1C1 | -0.25
MAN1C1 | -0.77
MAN1C1 | 0.77
MAN1C1 | 0.22
LPAR1 | -1.14
LPAR1 | 0.13
LPAR1 | -0.92
LPAR1 | 0.68
DSCR10 | 1.78
DSCR10 | 1.4
DSCR10 | 1.7
DSCR10 | 1.08
TMUB2 | 1.14
TMUB2 | 0.18
TMUB2 | 0.11
TMUB2 | 0.26
SERPINA6 | 1.8
SERPINA6 | 0
SERPINA6 | -0.26
SERPINA6 | 0.2
ACADM | -1.01
ACADM | 0.61
ACADM | -0.69
ACADM | -0.42
SOX5 | -1.35
SOX5 | -0.95
SOX5 | -0.76
SOX5 | -0.15
FBXO45 | 2.14
FBXO45 | 0.5
FBXO45 | 0.82
FBXO45 | 1.46
FBXO15 | 0.53
FBXO15 | 2.67
FBXO15 | -0.89
FBXO15 | 1.95
MCM5 | -0.6
MCM5 | -0.53
MCM5 | -0.47
MCM5 | 0.48
MYBL1 | -0.72
MYBL1 | 0.03
MYBL1 | -0.86
MYBL1 | -0.08
WBP11 | -0.28
WBP11 | -1.39
WBP11 | -0.51
WBP11 | 1.49

16 entries from above, ordered by “TNF reporter robust z-score”, low to high:
gene | TNF reporter robust z-score
LPAR1 | -1.14
RNF43 | -1.04
LPAR1 | -0.92
MAN1C1 | -0.77
MAN1C1 | -0.25
RNF43 | -0.01
LPAR1 | 0.13
RNF43 | 0.15
MAN1C1 | 0.22
RNF43 | 0.29
LPAR1 | 0.68
MAN1C1 | 0.77
DSCR10 | 1.4
STATH | 1.43
DSCR10 | 1.7
DSCR10 | 1.78
